Results as given in patent US20240360114A1 (SIRONAX LTD., priority 2021, published 2024).
Some results were stated once for a whole list of compounds, not compound by compound. Some ranges recur; such a range may be that of the whole group of compounds.

These molecules were tested on HT-1080 cells (assay: HT-1080 cell viability assay (ferroptosis induced by RSL3, Cell Titer-Glo)). Conditions: ferroptosis inducer RSL3, 20 hours, ferroptosis inhibitory activity, Table 2.
Format: cell-based
Protocol: Example 2. Determination of EC50 Values in HT-1080 Cell Viability Assay
HT-1080 (ATCC, CCL-121) cells (6000 in 100 μl) were seeded in 96-well plates (Corning) and cultured in a 37° C. incubator with a humidified atmosphere of 5% CO2 for overnight. Cells were then treated with ferroptosis inducer RSL3 (TargetMol) and a 3-fold, 10-point serial dilution series of compounds with 1.1 μM as the highest concentration, for 20 hours. Cell viability was assessed using the Cell Titer-Glo Kit (Promega). The luminescence intensity was measured with a microplate reader (Envision, PerkinElmer), and cell viability was calculated by normalizing the data to untreated controls. The EC50 values of the compounds (e.g., Compounds 1-573 and 574-661) were calculated in GraphPad Prism (GraphPad Software, Inc., San Diego, CA, USA). The curves were fitted using a non-linear regression model with a sigmoidal dose response.
`CC1CC(N)CCC1Nc1ccc(C(C)(C)C)cc1` (single isomer, unassigned) [Compound 252B, N1-(4-(tert-butyl)phenyl)-2-methylcyclohexane-1,4-diamine] was tested, and the EC50 was 0.0001 to 0.1 µM. With `CC1CC(N)CCC1Nc1ccc(C(C)(C)C)cc1` (single isomer, unassigned) [Compound 252C, N1-(4-(tert-butyl)phenyl)-2-methylcyclohexane-1,4-diamine] the EC50 was 0.0001 to 0.1 µM. Molecule `CC1CC(N)CCC1Nc1ccc(C(C)(C)C)cc1` (single isomer, unassigned) [Compound 252D, N1-(4-(tert-butyl)phenyl)-2-methylcyclohexane-1,4-diamine] has an EC50 of 0.0001 to 0.1 µM.
